The list is a part of this screen's results and no random one: it is rich in T/C values a quarter to a half above the control, in often repeated tests (any T/C) and in doses without a T/C. Further doses and runs are listed elsewhere. T/C is the treated group as % of the vehicle group. Some doses have a count of surviving animals in place of a T/C: the source holds a T/C of zero for them, seemingly a mark for toxic or unscored doses. Some doses without a T/C left all or most animals alive at the check, yet need not have been tolerated: survival well below the control is almost never listed, so the zero probably covers shortened survival too. Survivors were counted at the toxicity check, usually on the fifth day, unless a day is given; later deaths do not show. Schedule codes are those of the source, taken here to give the interval after Q, in days (D) or hours (H), and the number of doses after X. Some entries hold several experiments; the results are listed from low to high. Marks such as (2×) count equal records among those shown. For survival time, this PubChem deposit counts one and a half times the control or more as active, and values a quarter to a half above the control carry no call in these data; other NCI protocols may use other cut-offs. Some T/C values carry the count of animals alive at the toxicity check (mostly the fifth day); where none is given, no animal had died by that day.
System: BDF1 mice, P388 leukemia ip, median survival T/C
Assay: NCI In Vivo Anticancer Drug Screen. Data for tumor model P388 Leukemia (intraperitoneal) in B6D2F1 (BDF1) mice
Conditions: T/C endpoint: median survival time, higher T/C = longer survival
Summary of the method: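 Each value expresses how treatment altered survival: treated-mouse outcome over vehicle-mouse outcome, both groups bearing the transplanted tumour.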

[1] = dose: 200.0 mg/kg/injection, schedule: Q01DX009 (ip), vehicle: Klucel (hydroxypropylcellulose) (HPC)

O=P1(N(CCCl)CCCl)NCCCO1 (stereo unspecified)
T/C [1]: 91 % of control
survivor count [1]: 0 of 6, 1 of 3, 3 of 6, 2 of 3, 4 of 6, 5 of 6, 3 of 3, 6 of 6
survivor count (dose: 200.0 mg/kg/injection, schedule: Q01DX009 (ip), vehicle: saline): 7 of 7
T/C (dose: 200.0 mg/kg/injection, schedule: Q04DX002 (ip), vehicle: Klucel (hydroxypropylcellulose) (HPC), evaluated on day 30): 87, 99, 116, 132 [5 of 6 alive], 135, 155, 166, 172, 174, 199, 205, 211, 217, 224, 235, 238, 247, 252 (2×), 253, 255, 258 (2×), 270 (2×), 272 (2×), 277, 285, 291 (2×), 293 % of control
T/C (dose: 200.0 mg/kg/injection, schedule: Q04DX002 (ip), vehicle: Klucel (hydroxypropylcellulose) (HPC), evaluated on day 35): 224 % of control
survivor count (dose: 200.0 mg/kg/injection, schedule: Q04DX002 (ip), vehicle: Klucel (hydroxypropylcellulose) (HPC)): 2 of 3
T/C (dose: 200.0 mg/kg/injection, schedule: Q04DX003 (ip), vehicle: Klucel (hydroxypropylcellulose) (HPC), evaluated on day 30): 86, 91, 92, 94, 100, 104, 107 (2×), 108, 109, 110, 111, 115, 118, 120, 122, 125, 127, 128, 129, 136, 138, 158, 160, 200, 217, 219, 228, 232, 236, 253, 270 % of control
T/C (dose: 200.0 mg/kg/injection, schedule: Q04DX003 (ip), vehicle: Klucel (hydroxypropylcellulose) (HPC), evaluated on day 35): 209 and 276 % of control
survivor count (dose: 200.0 mg/kg/injection, schedule: Q04DX003 (ip), vehicle: Klucel (hydroxypropylcellulose) (HPC)): 3 of 3 and 6 of 6
survivor count (dose: 200.0 mg/kg/injection, schedule: Q04DX003 (ip), vehicle: water): 6 of 6
T/C (dose: 250.0 mg/kg/injection, schedule: Q01DX001 (ip), vehicle: saline, evaluated on day 5): 286, 372, 559 % of control
T/C (dose: 250.0 mg/kg/injection, schedule: Q01DX001 (ip), vehicle: saline, evaluated on day 35): 349 % of control
T/C (dose: 250.0 mg/kg/injection, schedule: Q01DX001 (ip), vehicle: saline, evaluated on day 60): 177 % of control
T/C (dose: 300.0 mg/kg/injection, schedule: Q01DX001 (ip), vehicle: saline, evaluated on day 5): 111, 113, 116, 150, 172, 243, 303, 345, 350, 481, 555, 587 % of control
T/C (dose: 300.0 mg/kg/injection, schedule: Q01DX001 (ip), vehicle: saline, evaluated on day 34): 105 % of control
T/C (dose: 300.0 mg/kg/injection, schedule: Q01DX001 (ip), vehicle: saline, evaluated on day 46): 338 % of control
T/C (dose: 300.0 mg/kg/injection, schedule: Q01DX001 (ip), vehicle: saline, evaluated on day 60): 102, 111, 113, 116, 150, 169, 243, 303, 350, 482, 486, 530 (2×), 545, 554, 555, 571, 587 % of control
T/C (dose: 400.0 mg/kg/injection, schedule: Q01DX001 (ip), vehicle: Klucel (hydroxypropylcellulose) (HPC), evaluated on day 30): 100, 104 [4 of 6 alive], 105 [5 of 6 alive], 107 [2 of 3 alive], 117 [5 of 6 alive], 118 [5 of 6 alive], 120, 135, 136, 151 [4 of 6 alive], 152, 176 [2 of 3 alive], 183 [5 of 6 alive], 214, 243 [4 of 6 alive], 245, 264, 270 [5 of 6 alive], 272, 275, 285 % of control [2 of 3 alive]
T/C (dose: 400.0 mg/kg/injection, schedule: Q01DX001 (ip), vehicle: Klucel (hydroxypropylcellulose) (HPC), evaluated on day 35): 95 and 156 % of control
survivor count (dose: 400.0 mg/kg/injection, schedule: Q01DX001 (ip), vehicle: Klucel (hydroxypropylcellulose) (HPC)): 1 of 3, 2 of 6, 3 of 6, 2 of 3
T/C (dose: 400.0 mg/kg/injection, schedule: Q01DX001 (ip), vehicle: saline, evaluated on day 5): 675 % of control [4 of 5 alive]
T/C (dose: 400.0 mg/kg/injection, schedule: Q01DX001 (ip), vehicle: saline, evaluated on day 9): 297 % of control
T/C (dose: 400.0 mg/kg/injection, schedule: Q01DX001 (ip), vehicle: saline, evaluated on day 30): 117 and 283 % of control
T/C (dose: 400.0 mg/kg/injection, schedule: Q01DX001 (ip), vehicle: saline, evaluated on day 35): 343 % of control (2×)
T/C (dose: 400.0 mg/kg/injection, schedule: Q01DX001 (ip), vehicle: saline, evaluated on day 40): 396 % of control
survivor count (dose: 400.0 mg/kg/injection, schedule: Q01DX001 (ip), vehicle: saline): 3 of 10, 3 of 6, 4 of 6, 7 of 8
T/C (dose: 400.0 mg/kg/injection, schedule: Q04DX002 (ip), vehicle: Klucel (hydroxypropylcellulose) (HPC), evaluated on day 30): 87, 90, 91, 94, 96, 99 [2 of 3 alive], 102, 105, 106, 258 (2×), 275, 290 % of control
T/C (dose: 400.0 mg/kg/injection, schedule: Q04DX002 (ip), vehicle: Klucel (hydroxypropylcellulose) (HPC), evaluated on day 35): 86 % of control
survivor count (dose: 400.0 mg/kg/injection, schedule: Q04DX002 (ip), vehicle: Klucel (hydroxypropylcellulose) (HPC)): 0 of 6, 1 of 6, 1 of 3, 2 of 3, 4 of 6, 5 of 6, 3 of 3, 6 of 6
T/C (dose: 400.0 mg/kg/injection, schedule: Q04DX003 (ip), vehicle: Klucel (hydroxypropylcellulose) (HPC), evaluated on day 30): 87, 88, 89, 90, 91, 93, 95, 112 % of control
T/C (dose: 400.0 mg/kg/injection, schedule: Q04DX003 (ip), vehicle: Klucel (hydroxypropylcellulose) (HPC), evaluated on day 35): 93 % of control
survivor count (dose: 400.0 mg/kg/injection, schedule: Q04DX003 (ip), vehicle: Klucel (hydroxypropylcellulose) (HPC)): 1 of 3, 3 of 6, 2 of 3, 4 of 6, 5 of 6, 3 of 3, 6 of 6 (2×)
survivor count (dose: 400.0 mg/kg/injection, schedule: Q04DX003 (ip), vehicle: saline): 2 of 6
survivor count (dose: 400.0 mg/kg/injection, schedule: Q04DX003 (ip), vehicle: water): 4 of 6
survivor count (dose: 500.0 mg/kg/injection, schedule: Q01DX001 (ip), vehicle: saline): 3 of 6
survivor count (dose: 600.0 mg/kg/injection, schedule: Q01DX001 (ip), vehicle: saline): 8 of 8

— PubChem BioAssay AID328 (DTP/NCI, 2004)
